Experimental data: PubChem BioAssay AID1159578 (Peter MacCallum Cancer Centre, 2015)
Test: 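siRNA pools altering how lymphatic endothelial cells close a scratch wound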 (primary screen). Cells: human lymphatic endothelial cells. Reagent: siRNA pool against human genes, 40 nM. Duration: 48 h after transfection. Detection: 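High-content imaging of dye-stained cells in a scratch assay measures filled wound area and nuclei per well; duplicate means given as ratio to mock and robust z-score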. Scale: migration robust z-score: higher = faster migration into the scratch; migration relative to mock: higher = more scratch area covered than mock; nuclei per well: higher = more cells in the well. Hit rule: 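Pools averaging fewer than 3300 nuclei are never called; remaining pools count as changed when migration robust z lies outside -2 to 2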. Meaning of the calls: active = migration changed; inactive = no migration change, or too few cells.
This is one part, drawn at random, of about 18,000 deposited reagents. About 1,030 of them (5.7%) were called active. 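Inactive calls also include pools with fewer than 3300 nuclei, whose migration was not assessed.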 Raw values are not corrected between plates. No sequences are given here.

| gene knocked down | migration robust z-score | migration class with cell-count check | migration relative to mock | nuclei per well, duplicate mean | call |
| --- | --- | --- | --- | --- | --- |
| OLFM2 (GeneID 93145) | 1.75 | migration z between -2 and 2; enough cells | 1.34 | 6436 | inactive |
| CAT (GeneID 847) | 1.04 | migration z between -2 and 2; enough cells | 1 | 6872 | inactive |
| RHEB (GeneID 6009) | -1.85 | migration z between -2 and 2; enough cells | 0.45 | 4986 | inactive |
| SNX29P1 (GeneID 100652781) | 0.48 | migration z between -2 and 2; enough cells | 1 | 6173 | inactive |
| SPAG16 (GeneID 79582) | 0.04 | migration z between -2 and 2; enough cells | 0.9 | 6322 | inactive |
| NRSN2 (GeneID 80023) | -0.07 | migration z between -2 and 2; enough cells | 0.86 | 5330 | inactive |
| PPM1B (GeneID 5495) | 0.11 | migration z between -2 and 2; enough cells | 0.82 | 5722 | inactive |
| ZBTB40 (GeneID 9923) | 0.81 | migration z between -2 and 2; enough cells | 1.09 | 4185 | inactive |
| SLC22A14 (GeneID 9389) | 1.18 | migration z between -2 and 2; enough cells | 1.19 | 5852 | inactive |
| GPR35 (GeneID 2859) | -2.05 | migration z below -2; enough cells | 0.41 | 5969 | active |
| SPTLC2 (GeneID 9517) | -1.27 | migration z between -2 and 2; enough cells | 0.56 | 4426 | inactive |
| ENPP5 (GeneID 59084) | 0.16 | migration z between -2 and 2; enough cells | 0.84 | 5588 | inactive |
| H4C12 (GeneID 8362) | 0.47 | migration z between -2 and 2; enough cells | 1.01 | 5634 | inactive |
| BDKRB2 (GeneID 624) | 0.44 | migration z between -2 and 2; enough cells | 0.89 | 7628 | inactive |
| RPS5 (GeneID 6193) | -1.27 | migration z between -2 and 2; enough cells | 0.55 | 4302 | inactive |
| ARGLU1 (GeneID 55082) | 2.23 | migration z above 2; enough cells | 1.46 | 6629 | active |
| SLC13A3 (GeneID 64849) | 0.64 | migration z between -2 and 2; enough cells | 1.05 | 7016 | inactive |
| AACS (GeneID 65985) | 0.16 | migration z between -2 and 2; enough cells | 0.84 | 6201 | inactive |
| LCE2A (GeneID 353139) | -3.77 | under 3300 nuclei; migration not judged | -0.08 | 1328 | inactive |
| CDHR4 (GeneID 389118) | -0.51 | migration z between -2 and 2; enough cells | 0.75 | 5430 | inactive |
| NGFR (GeneID 4804) | -0.08 | migration z between -2 and 2; enough cells | 0.86 | 6937 | inactive |
| MRGPRX3 (GeneID 117195) | 0.65 | migration z between -2 and 2; enough cells | 0.93 | 7182 | inactive |
| ESRRG (GeneID 2104) | -0.22 | migration z between -2 and 2; enough cells | 0.83 | 7610 | inactive |
| IVD (GeneID 3712) | -1.35 | migration z between -2 and 2; enough cells | 0.54 | 5392 | inactive |
| C4orf46 (GeneID 201725) | 0.3 | migration z between -2 and 2; enough cells | 0.96 | 5274 | inactive |
| RBMX (GeneID 27316) | -1.46 | migration z between -2 and 2; enough cells | 0.51 | 5901 | inactive |
| SH3GLB1 (GeneID 51100) | 0.03 | migration z between -2 and 2; enough cells | 0.9 | 6412 | inactive |
| COQ5 (GeneID 84274) | -0.46 | migration z between -2 and 2; enough cells | 0.72 | 5424 | inactive |
| HACE1 (GeneID 57531) | 0.05 | migration z between -2 and 2; enough cells | 0.81 | 3617 | inactive |
| ACOT4 (GeneID 122970) | 1.79 | migration z between -2 and 2; enough cells | 1.15 | 5112 | inactive |
| SV2B (GeneID 9899) | 1.61 | migration z between -2 and 2; enough cells | 1.12 | 4392 | inactive |
| DDTL (GeneID 100037417) | -1 | migration z between -2 and 2; enough cells | 0.62 | 5884 | inactive |
| FAM120B (GeneID 84498) | 0.22 | migration z between -2 and 2; enough cells | 0.94 | 5404 | inactive |
| CFHR5 (GeneID 81494) | 0.25 | migration z between -2 and 2; enough cells | 0.95 | 4506 | inactive |
| EIF5 (GeneID 1983) | -0.18 | migration z between -2 and 2; enough cells | 0.77 | 5191 | inactive |
| UBE2Q1 (GeneID 55585) | -0.11 | migration z between -2 and 2; enough cells | 0.78 | 6708 | inactive |
| ZNF436 (GeneID 80818) | -0.64 | migration z between -2 and 2; enough cells | 0.72 | 6730 | inactive |
| TUBA8 (GeneID 51807) | -0.9 | migration z between -2 and 2; enough cells | 0.63 | 6517 | inactive |
| SERTM1 (GeneID 400120) | 0.69 | migration z between -2 and 2; enough cells | 1.06 | 7202 | inactive |
| NUDT22 (GeneID 84304) | -1.23 | migration z between -2 and 2; enough cells | 0.56 | 7652 | inactive |
| OR52E4 (GeneID 390081) | -0.28 | migration z between -2 and 2; enough cells | 0.82 | 4530 | inactive |
| KIF18A (GeneID 81930) | -0.86 | under 3300 nuclei; migration not judged | 0.64 | 3232 | inactive |
| CSN3 (GeneID 1448) | -0.18 | migration z between -2 and 2; enough cells | 0.84 | 4568 | inactive |
| COMMD4 (GeneID 54939) | 0.5 | migration z between -2 and 2; enough cells | 1.01 | 7267 | inactive |
| UAP1L1 (GeneID 91373) | 0.42 | migration z between -2 and 2; enough cells | 0.99 | 6734 | inactive |
| SAYSD1 (GeneID 55776) | -0.68 | migration z between -2 and 2; enough cells | 0.71 | 3764 | inactive |
| TLE3 (GeneID 7090) | -1.4 | migration z between -2 and 2; enough cells | 0.52 | 4900 | inactive |
| DEFB135 (GeneID 613209) | 0.87 | migration z between -2 and 2; enough cells | 1.12 | 5320 | inactive |
| CPEB3 (GeneID 22849) | -1.56 | migration z between -2 and 2; enough cells | 0.48 | 4254 | inactive |
| LONP1 (GeneID 9361) | 0.47 | migration z between -2 and 2; enough cells | 0.9 | 5794 | inactive |
| P4HA3 (GeneID 283208) | -0.2 | migration z between -2 and 2; enough cells | 0.76 | 4930 | inactive |
| VPS39 (GeneID 23339) | 0.15 | migration z between -2 and 2; enough cells | 0.92 | 6028 | inactive |
| NME2 (GeneID 4831) | 0.39 | migration z between -2 and 2; enough cells | 0.88 | 5274 | inactive |
| NKAIN4 (GeneID 128414) | -0.34 | migration z between -2 and 2; enough cells | 0.8 | 5418 | inactive |
| OR2T5 (GeneID 401993) | -0.07 | migration z between -2 and 2; enough cells | 0.86 | 6022 | inactive |
| NNT (GeneID 23530) | -1.38 | migration z between -2 and 2; enough cells | 0.54 | 5056 | inactive |
| RAD51B (GeneID 5890) | 1.42 | migration z between -2 and 2; enough cells | 1.08 | 5959 | inactive |
| IL17RD (GeneID 54756) | -0.5 | migration z between -2 and 2; enough cells | 0.76 | 4726 | inactive |
| PAQR3 (GeneID 152559) | -1.56 | migration z between -2 and 2; enough cells | 0.48 | 4125 | inactive |
| TTPAL (GeneID 79183) | -0.86 | migration z between -2 and 2; enough cells | 0.66 | 5544 | inactive |
| PLXNB3 (GeneID 5365) | 0.76 | migration z between -2 and 2; enough cells | 1.08 | 5946 | inactive |
| DHX40 (GeneID 79665) | 0.15 | migration z between -2 and 2; enough cells | 0.84 | 3493 | inactive |
| B4GALT2 (GeneID 8704) | -3.04 | under 3300 nuclei; migration not judged | 0.22 | 2523 | inactive |
| LSG1 (GeneID 55341) | -0.2 | migration z between -2 and 2; enough cells | 0.84 | 6141 | inactive |
| GTF2I (GeneID 2969) | -0.62 | migration z between -2 and 2; enough cells | 0.73 | 6418 | inactive |
| COPB1 (GeneID 1315) | -4.87 | under 3300 nuclei; migration not judged | -0.41 | 1886 | inactive |
| TADA3 (GeneID 10474) | -2.26 | migration z below -2; enough cells | 0.37 | 3753 | active |
| PIP5K1C (GeneID 23396) | -1.98 | migration z between -2 and 2; enough cells | 0.43 | 4634 | inactive |
| FDXR (GeneID 2232) | 0.23 | migration z between -2 and 2; enough cells | 0.85 | 5418 | inactive |
| GSTO2 (GeneID 119391) | -0.06 | migration z between -2 and 2; enough cells | 0.8 | 5820 | inactive |
| LILRA1 (GeneID 11024) | -0.17 | migration z between -2 and 2; enough cells | 0.84 | 4482 | inactive |
| ATP6V0D1 (GeneID 9114) | -2.46 | migration z below -2; enough cells | 0.33 | 3680 | active |
| PHB2 (GeneID 11331) | 0.93 | migration z between -2 and 2; enough cells | 0.98 | 5163 | inactive |
